Assay results reported in publication PMC4158885.

Amino acid sequences for entries named in this document (tags omitted).
UniProt P08515, whole entry: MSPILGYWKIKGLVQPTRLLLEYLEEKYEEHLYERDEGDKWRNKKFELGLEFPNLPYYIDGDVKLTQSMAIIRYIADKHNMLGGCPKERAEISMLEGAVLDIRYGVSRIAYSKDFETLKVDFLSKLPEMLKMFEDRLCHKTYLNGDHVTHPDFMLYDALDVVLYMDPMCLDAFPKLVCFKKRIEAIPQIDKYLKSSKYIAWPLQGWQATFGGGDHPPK

Key:
[1] = target: GST (UniProt P08515); assay: fluorescence polarization; details: 1 mM Mg2+, negative control; FP: 10 mM Tris pH 8.0, 50 mM NaCl, 1 mM MgCl2, 5 mM beta-mercaptoethanol, 20 nM RNA, temperature not stated; recombinant protein; label: 5' Cy3
[2] = target: T1, ctPan2 E899A (Chaetomium thermophilum) (UniProt G0SAK8); assay: fluorescence polarization; details: 1 mM Mg2+, much weaker than ctPan3 PKC, heading states Pan2 does not bind RNA; FP: 10 mM Tris pH 8.0, 50 mM NaCl, 1 mM MgCl2, 5 mM beta-mercaptoethanol, 20 nM RNA, temperature not stated; recombinant protein; protein details: Strep-II, His; label: 5' Cy3
T1 sequence (looked up, limits assumed): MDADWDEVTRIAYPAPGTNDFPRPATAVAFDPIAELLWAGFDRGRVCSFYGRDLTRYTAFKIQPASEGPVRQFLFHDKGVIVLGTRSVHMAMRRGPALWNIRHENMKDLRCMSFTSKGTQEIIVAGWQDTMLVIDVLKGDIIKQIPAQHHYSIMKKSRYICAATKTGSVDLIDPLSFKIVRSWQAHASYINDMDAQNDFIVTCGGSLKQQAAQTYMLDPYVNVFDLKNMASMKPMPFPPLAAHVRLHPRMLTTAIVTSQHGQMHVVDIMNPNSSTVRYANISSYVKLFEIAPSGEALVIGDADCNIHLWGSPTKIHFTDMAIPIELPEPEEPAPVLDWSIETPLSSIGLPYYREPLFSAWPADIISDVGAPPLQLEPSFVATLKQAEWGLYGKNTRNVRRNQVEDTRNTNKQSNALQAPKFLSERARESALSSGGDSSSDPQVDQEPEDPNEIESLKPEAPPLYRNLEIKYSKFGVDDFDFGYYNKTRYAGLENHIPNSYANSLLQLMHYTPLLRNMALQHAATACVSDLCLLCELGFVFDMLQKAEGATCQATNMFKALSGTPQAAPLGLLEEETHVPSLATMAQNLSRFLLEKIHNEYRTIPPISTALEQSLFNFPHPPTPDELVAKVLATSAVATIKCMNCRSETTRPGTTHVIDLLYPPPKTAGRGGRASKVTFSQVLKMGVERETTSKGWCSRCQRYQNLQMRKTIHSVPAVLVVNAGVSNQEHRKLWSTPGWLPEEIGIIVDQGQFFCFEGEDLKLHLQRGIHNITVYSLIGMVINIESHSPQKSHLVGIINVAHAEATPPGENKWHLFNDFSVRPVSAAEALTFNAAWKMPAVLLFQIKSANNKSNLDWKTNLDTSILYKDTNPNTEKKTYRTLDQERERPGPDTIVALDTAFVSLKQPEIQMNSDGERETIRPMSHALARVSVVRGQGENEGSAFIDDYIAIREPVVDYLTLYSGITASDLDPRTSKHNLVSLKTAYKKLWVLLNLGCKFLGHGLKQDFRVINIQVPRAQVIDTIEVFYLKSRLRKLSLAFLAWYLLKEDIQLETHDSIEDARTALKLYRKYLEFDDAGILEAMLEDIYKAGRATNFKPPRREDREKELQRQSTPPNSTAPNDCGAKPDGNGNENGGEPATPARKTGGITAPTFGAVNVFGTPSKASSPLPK

Sequence: AAAAAAAAAAAAAAAAAAAAAAAAA [Cy3-A25 RNA]
- binding result [1]: no binding
- binding result [2]: binds more weakly

Construct, isoform or probe ends are uncertain for at least one entry. For some assays here: Negatives hold for the conditions tested. For some assays here: A weaker result is weaker than the reference pair of the same experiment. For some assays here: Protein sequences can lack the tags named with them.
